The supplement of paper PMC3334620
The full ranking holds about 33,000 sequences; the median of “E-score (-0.5 to 0.5)” is about -0.0014, and the highest 2% start at about 0.25. This is one part of the list.

Each sequence was assayed against T1, Cad1 (UniProt P24813) (assay: PBM E-score (8-mer binding enrichment) (E-score (-0.5 to 0.5)); higher = stronger / more preferred TF binding). Conditions: protein concentration: 100 nM; construct: GST-full length.
T1 sequence: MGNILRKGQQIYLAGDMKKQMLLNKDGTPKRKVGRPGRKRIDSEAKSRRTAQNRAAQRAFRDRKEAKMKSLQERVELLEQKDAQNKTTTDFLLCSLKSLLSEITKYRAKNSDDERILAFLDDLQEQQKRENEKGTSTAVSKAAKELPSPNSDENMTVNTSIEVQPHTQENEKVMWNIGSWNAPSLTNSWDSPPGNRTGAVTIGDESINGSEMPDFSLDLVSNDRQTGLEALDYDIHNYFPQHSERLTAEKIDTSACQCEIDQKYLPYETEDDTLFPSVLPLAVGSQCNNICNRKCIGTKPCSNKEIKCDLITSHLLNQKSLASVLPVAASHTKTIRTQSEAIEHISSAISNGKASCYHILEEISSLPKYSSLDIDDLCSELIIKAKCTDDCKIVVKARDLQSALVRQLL
Outline: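 Full-length yeast transcription factors or their DNA-binding domains, GST-tagged and expressed with PURExpress, were applied at about 100-200 nM to universal all-10-mer Agilent arrays. These arrays had been made double-stranded by primer extension on fresh or once-stripped slides. Detection used fluorescent anti-GST, normalisation used masliner, and E-scores for ungapped eight-base words pooled with reverse complements came from the Universal PBM Analysis Suite.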

Sequence	PBM E-score
GTCGCCCA	-0.0788
CACACTGA	-0.00238
AAAGGATA	0.149
AGCGGTAC	0.0993
ATTGAGAG	0.15
ACTGGTCA	-0.0283
GATTATAA	0.29
AGTCCGAT	0.05
AATCACAA	0.0852
GTCTCAAC	-0.072
AAGGGCAT	-0.205
CCGGGGAA	-0.143
CGCGAGCC	0.072
AATGGAAA	-0.01
CGGCTCAC	-0.0062
GCCGGTCC	-0.178
GCAGAGAA	0.0302
ACAGTAGA	-0.0159
ATCCTAGA	-0.0558
AGGGTACG	-0.175
GGCGCGGA	0.0474
ATAGTCGG	-0.048
ACGTCCCC	-0.288
AGTGTGAC	-0.0643
CAGTAGGG	-0.192

Sequence	PBM E-score
CCGGACTC	0.281
AGCTGATG	0.092
CCGAAGCC	-0.147
CAGTGCGA	-0.0311
CAGGCTTC	0.0239
CAGTACAG	0.00174
AATCCCCT	-0.391
AATTAGTC	0.346
GCCCAACA	-0.145
CAATACGG	0.033
CCGTCGCA	-0.00099
ACTAGCTC	-0.0688
GCGCGTCA	0.0818
CCGTCTCA	-0.0131
AATTTATA	0.241
CATGAAGG	0.0961
ATTGGAGG	-0.0512
CATTCGGG	0.051
AGCAAGTG	-0.0785
CTTGTTAC	-0.0787
ATGGTTAA	0.133
ATGCGACC	0.0488
CGACTACC	-0.128
GCATCCAA	-0.167
AAGGCCTT	-0.101

Quoted at random: 3 entries already listed, in no set order.
Sequence	PBM E-score
CGACTACC	-0.128
GCGCGTCA	0.0818
AGCAAGTG	-0.0785

Next results follow:

Sequence	PBM E-score
ATCTCGGG	0.156
GCAGACCA	-0.0168
ACGCGACA	0.145
GCACTTTA	0.0791
ACTCCTGC	-0.0123
AAGCAGAG	-0.111
ATCGATAG	0.0764
GTTTACCA	0.0706
CATCTTAG	0.0167
GTAGGGGA	-0.232
ATCACCTC	0.0366
AGCGTCCC	0.00123
ATGCCAAT	-0.0122
GAATAAAC	0.0531
GCGTGGTA	-0.0441
ACGAGGAA	0.0132
ACGCGACT	-0.154
AGCGCTGC	0.0821
CAACACAA	0.11
ATAACATG	0.146
ACCCAATA	0.0319
CCGACGCA	-0.0934
AACCGGAA	0.162
GCGCGGCC	0.17
CATGCGCA	0.116

Sequence	PBM E-score
ACGCCCTG	-0.0391
TGGGGTAA	0.134
AATGGGCT	-0.219
GCTTTAAA	-0.129
AAGAGGGG	-0.239
CCGCGTCG	0.146
ATACATAT	0.286
AATGTAAG	0.264
ACGCAGGA	-0.0891
GATAATAC	0.182
CCCTCACC	-0.248
CGCAAATA	0.23
GCCGCCAA	-0.0208
GGGCGTCA	-0.0197
GATTTCAC	0.221
ACGAAATC	0.214
AGTCGAAC	0.105
GAACATGC	-0.0214
AGCGATCG	0.216
CAATCGCC	-0.00155
ATCAGCAC	0.0147
AATTCAAT	0.162
CTACCCTA	-0.129
CCAGACAA	0.0234
TACTACGA	0.116

Six consecutive records already listed, for reference:
Sequence	PBM E-score
GTCTCAAC	-0.072
AAGGGCAT	-0.205
CCGGGGAA	-0.143
CGCGAGCC	0.072
AATGGAAA	-0.01
CGGCTCAC	-0.0062

Continuation.

Sequence	PBM E-score
TAACCCGA	-0.00699
TCCTCTAA	-0.139
TAGGGTGA	-0.00775
GGTCACAC	-0.212
ACGACTTA	-0.0249
GACTGCAC	-0.0126
CTGAAGAC	-0.0558
CCGAGTAA	-0.00219
CAGCACCG	-0.138
AAGGGATC	-0.236
CGGAGATA	0.0493
AGTCCAGA	0.00188
AGGAGCTA	-0.255
ATCCCGTA	0.116
ATCGGGAC	-0.12
CGTCTCCA	0.00987
ACAAATAC	0.271
ACATCTTG	-0.172
AATAAACG	0.177
AGATATTC	0.0892
CAGAGTGC	-0.0155
AGCCTCTA	-0.288
CCCACCCC	0.0432
AACAGGGA	0.0284
CGAATGCA	0.101

Sequence	PBM E-score
CATGTGTA	0.0667
AGGCCAAG	-0.197
AGGAGCAC	-0.0512
AACCCTAC	-0.291
ATTATACG	0.237
ATGGACCC	-0.0809
GTTTACAA	0.138
TCCGCCAA	-0.096
CTCATTAC	0.204
GGCATGCA	0.183
ACTTGCTG	-0.0943
ACGGCCTC	0.0237
GGCTCGTA	0.0824
CCTTGGCG	-0.288
CGAATAGA	0.0513
ACTTATTA	0.192
ACCAGTTC	-0.0878
CATAAGCG	0.0735
GCACTCGA	0.0531
CTTCCACC	-0.254
CCGGTACG	-0.169
AGGAGTAA	0.027
GAGCTTAA	-0.051
ATGCTATG	0.125
GCTGTTCC	-0.0944

Sequence	PBM E-score
ATCAGGGA	-0.119
AAGTTGGC	-0.125
CGTGTGAC	0.0826
GCCATCCA	-0.131
ATCTAGTA	0.193
GTCCGTAA	0.098
CCGGAGAA	-0.0877
AATTCTGG	0.0109
CATCGAAG	0.0775
ATTCGTGC	0.0484
AACAACCC	-0.0929
CTGTCCTA	-0.179
GATTCGTA	0.134
ACTAGTCG	-0.0636
CCCCTTAG	-0.213
ACTCTAAG	-0.094
CGATTGCA	0.134
AAGTGCTG	0.0929
AAAGGCTT	-0.0338
TGATAGAA	0.0818
AATGTTGA	-0.0828
GATTCTTA	0.186
TCTCCAAA	-0.116
ACTCATTC	0.123
GTATATTA	0.115

Sequence	PBM E-score
CGCTATCC	0.0948
AGGTCTAC	-0.108
CGCGCCAA	-0.0117
TGAAGGAA	0.107
ACGGGTCG	0.0697
ATATCACC	0.151
CGCATCAG	0.125
CCGCAACA	0.06
CCGTTCTA	0.128
ACATTGGA	-0.121
ATGTAGCC	-0.273
ACGAAGCT	0.0162
AGAGCCGC	0.0524
ATTTAATG	0.213
ATGATCAA	0.2
GGTCCTAC	-0.274
ATCAACCA	-0.00508
CCGAGCCG	-0.0389
CCGGTTAC	0.0987
AGCGCTGA	0.258
CATGGCAG	-0.0124
GCTGATCA	0.0264
TATTGAAA	0.183
ATTCTTGA	0.143
ATTGCCCG	0.0525

Sequence	PBM E-score
ACGAAACT	0.147
AGAGGGCA	-0.226
GCGCCCAC	-0.0659
ATAGCGAC	0.00835
ACATGTCT	0.0177
AAAGTGAG	0.101
ATTCGTCC	0.208
ATATACGA	0.0213
CGCAGCGC	0.0162
GAACCGCA	0.0939
AACCTAGA	-0.0213
ATGACTGA	0.0407
AAGCAACG	0.207
CGCATTCA	0.143
GTCTCTTA	0.0448
CTAGTGGA	-0.227
AATGCTAC	0.0985
GAGTTGCC	0.135
ACAATGCG	0.0843
